In PubChem BioAssay AID493014 (National Center for Advancing Translational Sciences (NCATS), 2011) one finds AC50 data, which are given here for 39 compounds.

Some of the results follow. Further columns of the screen follow, without active or inactive calls. Most of these compounds were active or inconclusive in the main read-out, so they are no random draw. Potencies come from curve fits of mixed quality, noted in brackets.

A short description of the experiment: qHTS Assay to Find Inhibitors of Chronic Active B-Cell Receptor Signaling. Particulars: ABC-DLBCL IkBa-CBG/CBR reporter, luminescence ratio (green luciferase fused to IkBa over red control in TMD8 lymphoma cells), 4 h. In short, it runs like this: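 Cell line TMD8 (human ABC DLBCL), stably expressing tet-inducible CBG68-IkBa fusion and CBR; IMDM/0.5% FBS; cpd up to 46 uM; dox induction, 4 h, 37C/5% CO2; dual luminescence; green/red ratio; MG132 control.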
(In general: Quantitative high-throughput screening tests each substance at several concentrations.)

Setting [1] is: measured here: CBR red luminescence, cell number.
The mark [2] stands for this setting: measured here: IkBa-CBG green luminescence.

As usually defined, the AC50 is the concentration at which the activity in the assay is half-maximal. Turning to `COC(=O)c1sc(NC(=O)CSc2nnnn2C)nc1C`, the AC50 under setting [1] is 35.5 µM [falling, single point]. The same measure, in the same setting: the same measure for `COc1ccc(CCNS(=O)(=O)c2ccc(Cl)cc2)cc1OC`: 25.1 µM [rising, partial curve, poor fit]. On the same count and under the same terms, the same measure for `CCOC(=O)c1nn(-c2ccc(F)cc2)c2nc(Nc3ccccc3)cc(=O)n12`: 0.206 µM [rising, full curve, poor fit]. Still for that read-out and setting: the same measure for `O=c1c(-c2ccc(Br)cc2)coc2c(CN3CCOCC3)c(O)ccc12`: 16.4 µM [rising, partial curve, poor fit]; for `COCCOC(=O)C1=C(C)NC(=S)NC1c1cccs1` (configuration not stated): 1.41 µM [rising, full curve, poor fit]; for `CC1CC1C(=O)OCc1cc(=O)n2cc(Br)ccc2n1` (configuration not stated): 1.78 µM [rising, partial curve, poor fit]. As to `O=C1N=C(N2CCOCC2)S/C1=C/c1ccc(-c2ccc(F)cc2)o1`, under setting [1], the AC50 is 0.112 µM [rising, full curve, poor fit]. Still for that read-out and setting: the same measure for `COc1ccc(CCNS(=O)(=O)c2ccc3c(c2)OCCO3)cc1`: 32.6 µM [rising, partial curve, poor fit]; for `O=c1[nH]c(CN2CCN(c3ccc(O)cc3)CC2)nc2scc(-c3ccc(Cl)cc3)c12`: 25.1 µM [falling, single point]; for `C=CCn1c(CC(=O)OC)csc1=Nc1ccc(C(C)=O)cc1`: 17.8 µM [rising, partial curve, poor fit].

For `Cc1cc(N2CCCC2)ccc1/C=N/n1cnnc1`, the half-maximal activity concentration (AC50) under setting [1] is 10.3 µM [rising, partial curve].

As for `Cn1cnc([N+](=O)[O-])c1S(=O)(=O)c1ccc(Cl)cc1`, the concentration at half-maximal activity (AC50) was 14.6 µM [falling, partial curve] under setting [1] and 16.4 µM [rising, partial curve, poor fit] under setting [2]. As for `COc1cc(-c2nn3c(-c4cccc(C)c4)nnc3s2)cc(OC)c1OC`, the AC50 under setting [1] was 14.6 µM [rising, partial curve, poor fit]. Same read-out and setting: the same measure for `CC(C)CN(C(=O)COC(=O)c1c2c(nc3ccccc13)CCC2)c1c(N)n(Cc2ccccc2)c(=O)[nH]c1=O`: 28.2 µM [falling, single point]. Still for that read-out and setting: the same measure for `Fc1cc2nccnc2cc1N1CCSCC1`: 29.1 µM [falling, single point]; for `CC(C)NC(=O)c1ccc(COCC(F)(F)C(F)F)cc1`: 29.1 µM [rising, single point]; for `CCOC(=O)c1ccc(-c2ccc3[nH]c4ccccc4c(=O)c3c2)cc1F`: 11.2 µM [rising, single point]. On the same count and under the same terms, the same measure for `CC(=O)OC1CC(C)N(C(=O)c2ccccc2)c2ccc(C)cc21` (configuration not stated): 1.84 µM [rising, partial curve, poor fit]; for `Cc1cc(C(=O)Nc2cccc(NC(=O)c3ccco3)c2)ccc1[N+](=O)[O-]`: 5.01 µM [falling, full curve, poor fit].

Take `COc1ccc(C(=O)n2cc(C(C)=O)c3ccccc32)cc1`: the AC50 under setting [1] was 15.8 µM [rising, single point]. On the same count and under the same terms, the same measure for `CC(/C=C/c1ccco1)=N/NC(=O)C1COc2ccccc2O1` (configuration not stated): 25.1 µM [rising, single point]; for `CCOc1ccc(C(=O)NCC(=O)OCCN2C(=O)c3ccccc3C2=O)cc1OCC`: 29.1 µM [rising, single point].

As for `COc1ccc(N(C)C(=O)CCC(=O)Nc2ccc3nc(N4CCOCC4)cc(C)c3c2)c(OC)c1`, the AC50 under setting [1] is 35.5 µM [falling, single point]. Still for that read-out and setting: the same measure for `O=C(Oc1ccccc1)c1ccc(NC(=O)c2ccco2)cc1`: 14.6 µM [rising, partial curve, poor fit]; for `COc1ccc(C)c2sc(N(CCN(C)C)C(=O)c3cccc(N4C(=O)CCC4=O)c3)nc12`: 29.1 µM [falling, single point]. For `Cc1ccc(CS(=O)(=O)c2ncc(Cl)c(C(=O)Nc3nnc(C(C)C)s3)n2)cc1`, the concentration at half-maximal activity (AC50) under setting [1] is 35.5 µM [falling, single point]. The same measure, in the same setting: the same measure for `CN(C)CCNC(=O)c1ccc(Cl)s1`: 0.517 µM [falling, full curve, poor fit]; for `COC(=O)c1ccccc1S(=O)(=O)N(Cc1ccco1)Cc1cc2cc(OC)ccc2[nH]c1=O`: 0.00461 µM [rising, full curve, poor fit].

Consider `COc1ccc([C@@H]2C[C@H](c3ccccc3)Oc3cc(OC)c(OC)c(OC)c32)cc1`, for which, under setting [1], the AC50 is 12.6 µM [rising, partial curve, poor fit].

In the case of `Cc1cc(C(=O)Nc2cc(Br)ccc2O)on1`, the AC50 under setting [1] was 11.2 µM [falling, partial curve, poor fit]. Still for that read-out and setting: the same measure for `Cc1nc2nc(SCC(=O)NCc3ccco3)nn2c(C)c1Cc1c(F)cccc1Cl`: 7.08 µM [falling, partial curve, poor fit].

`NC(=O)c1c(NC(=O)CSc2nc(N)cc(=O)[nH]2)sc2c1CCCC2`: the AC50 is 1.26 µM [rising, full curve, poor fit] under setting [1] and 7.94 µM [falling, partial curve] under setting [2]. On to `CCCOC(=O)c1ccc(Oc2cn[nH]c2-c2ccc(OCC(=O)NN)cc2O)cc1`, for which the AC50 under setting [1] was 35.5 µM [falling, single point]. Consider `CC(C)(C)NCc1cc(Cl)ccc1OCc1cccs1`, for which the concentration at half-maximal activity (AC50) under setting [1] was 18.4 µM [falling, partial curve, poor fit]. The same measure, in the same setting: under `CN(C)C(=O)CSc1nc2ccccc2n1Cc1ccccc1` stands 18.4 µM [falling, partial curve, poor fit]; under `COc1ccccc1NC(=S)NC1CC2CCC1C2` (configuration not stated), 15.8 µM [rising, partial curve, poor fit]. As for `COc1ccc(Cl)cc1N1CCN(CCNC(=O)Nc2ccccc2C)CC1`, the half-maximal activity concentration (AC50) under setting [1] was 3.26 µM [rising, partial curve, poor fit]. On the same count and under the same terms, under `Cc1ccc(NC(=O)Nc2ccccc2C(=O)NCc2ccccc2)cc1` stands 0.116 µM [falling, full curve]. For `C=C(C)c1cccc(C(C)(C)NC(=O)N2CCCC(C)C2)c1` (configuration not stated), the AC50 under setting [1] was 13 µM [falling, partial curve] and the AC50 under setting [2] is 20.6 µM [rising, partial curve, poor fit].
